Assay results as given in paper PMC8769378, “Underlining the Importance of Peripheral Protic Functional Groups to Enhance the Proton Exchange of Gd-Based MRI Contrast Agents” (Inorganic Chemistry, 2021).
Like-named read-outs stand apart in the source and are kept apart here.

Assays:
[1] = design: method as in PMID 34123071; details: 20 MHz, 0.15 M NaCl, 298 K ref 7; cited from earlier work
[2] = Fit of relaxivity vs pH profiles: proton exchange kinetic and relaxation parameters; format: physicochemical; details: longitudinal relaxation time of the −OH proton; 20 MHz, 0.15 M NaCl, 298 K
Protocol: At pH >3, the r1 values of GdL2 decrease with the increase of pH from 6.6 mM^–1 s^–1 to reach a plateau of 5.1 mM^–1 s^–1 around pH = 7.5. A further increase of the pH results in the slight increase of r1 reaching a maximum around pH = 9.5. Finally, at pH >9.5, another small decrease in r1 is observed. On the other hand, in the case of GdL1, the r1 values are independent from the pH in the range 4.0–7.5, whereas at pH >8.0, r1 increases up to 5.2 mM^–1 s^–1. The r1 values of GdL1 were measured in the pH range 4–10 in order to avoid the hydrolysis of the methyl ester. […] Then, the overall relaxivity, r1, is given by eq 1: [drawing 1] 1 where r1^is, r1^os, and r1^pr are the relaxivity components due to the inner and outersphere water molecules and the −OH group, respectively. r1^pr can be expressed as follows:[26]−[28] [drawing 2] 2 […]
Proton relaxation measurements (1/T1) and the resulting 1/T1 NMRD profiles were measured on a fast-field cycling (FFC) Stelar SmarTracer relaxometer over a continuum of magnetic field strengths from 0.000 24 to 0.25 T (corresponding to 0.01–10 MHz proton Larmor frequencies). […] Furthermore, the real temperature inside the probe head was additionally monitored by a Fluke 52 k/j digital thermometer (Fluke, Zürich, Switzerland). The gadolinium concentration was determined by measuring the bulk magnetic susceptibility shifts of the t-BuOH ^1H NMR signal. […]

SMILES | T1^H × 10^6 [1] | T1^H × 10^6 [2]
NC(=O)[C@H](O)CN1CCN(CC(=O)[O-])CCN(CC(=O)[O-])CCN(CC(=O)[O-])CC1.[Gd+3] [GdHPADO3A] | 5.6 s | –
CC(O)CN1CCN(CC(=O)[O-])CCN(CC(=O)[O-])CCN(CC(=O)[O-])CC1.[Gd+3] (stereo not drawn) [GdHPDO3A] | 5.0 s | –
O=C([O-])CN1CCN(CC(=O)[O-])CCN(CC(O)C(=O)O)CCN(CC(=O)[O-])CC1.[Gd+3] (stereo not drawn) [GdL2] | – | 8.5 ± 0.1 s
